In US9896662B2, “Process for enhancing stem cell bioactivity using tauroursodeoxycholic acid” (Pusan National University Industry—University Cooperation …, priority 2014, dated 2018):
For at least one compound, name, drawing or mass did not settle the structure.

Tested on: CD34+ HSCs
Experiment: EPC colony forming capability of CD34+ HSCs (differentiation into the EPC lineage)
Type: cell-based
Conditions: exposure to PI3K inhibitor
Description: Meanwhile, in order to clarify the impact of TUDCA on CD34^+ HSC differentiation into the EPC lineage, the EPC colony forming capability of CD34^+ HSCs was examined. As a result, it was confirmed that the EPC colony forming capability was enhanced by TUDCA (FIG. 4e). Further, as Akt activation via PI3-kinase increases differentiation of CD34^+ HSCs into the EPC lineage, it was examined whether TUDCA activates Akt in CD34^+ HSC. As a result, it was confirmed that TUDCA increased Akt phosphorylation, and the exposure to LY294002, a PI3K inhibitor, inhibited TUDCA-mediated CD34^+ HSC differentiation into the EPC lineage (FIG. 4f).

O=c1cc(N2CCOCC2)oc2c(-c3ccccc3)cccc12 [LY294002]
TUDCA-mediated CD34+ HSC differentiation into the EPC lineage: inhibited
